# In US20070021451A1, “Method for preventing or treating neurologic damage after spinal cord injury” (HAMAMATSU UNIVERSITY SCHOOL OF MEDICINE, priority 2005, published 2007):
# Experiment: Physiologic parameters (body weight, rectal temperature, mean arterial blood pressure) in rabbit model of spinal cord ischemia
# Format: in vivo, New Zealand White rabbits
# Experimental: Twenty-six male New Zealand White rabbits weighting 2.2 to 3.0 kg were used in this experiment. Spinal cord ischemia was induced by occluding the abdominal aorta with […] for 20 minutes just distal to the renal arteries. Surgical preparation was conducted according to the method described in the literature, Terada H. et. al., J. Thorac. Cardiovasc. Surg. 2001; 122: 979-85. A 24-gauge venous catheter was placed in the marginal ear vein for drug administration. The rabbits were anesthetized with intravenous sodium pentobarbital (25 mg/kg) and allowed to breathe spontaneously. Lidocaine (0.5%) was administered at the site of the skin incision as local anesthesia. The left common carotid artery was cannulated with a 24-gauge catheter for monitoring the arterial pressure. Core body temperature was continuously monitored with a rectal probe and was maintained at 38.5° C. with the aid of heating lamp. The infrarenal abdominal aorta was exposed through a transperitoneal approach. After systemic heparinization (200 U/kg), spinal cord ischemia was induced by occluding the abdominal aorta with […] for 20 minutes just distal to the renal arteries and just above the aortic bifurcation. Then, the […] released, and the flank was closed. […] The rabbits were assigned randomly to 1 of the 4 groups and subjected to the treatment of (1) above in the following manner. […]
smiles,measurement,setting,value
"Cc1cc(-c2ccc(F)cc2)cc(OCCCCCN2CCCCC2)n1.Cl [NS-7, 4-(4-Fluorophenyl)-2-methyl-6-(5-piperidinopentyloxy)pyridine hydrochloride]",Weight,Group A: NS-7 1 mg/kg i.v. 15 min before aortic occlusion,2.6 ± 0.2 kg
same,Weight,Group B: NS-7 1 mg/kg i.v. at the onset of reperfusion,2.5 ± 0.2 kg
